No constants are given. Whether binding was seen depends on the method and setting. Binding calls can cover weak binding; strength is not graded here. For part of these data: Tags and fused reporters may be left off the sequences shown.

Amino acid sequences for entries named in this document (tags omitted). A change or cut given only in a name is not applied to a line headed by its entry.
UniProt P61960: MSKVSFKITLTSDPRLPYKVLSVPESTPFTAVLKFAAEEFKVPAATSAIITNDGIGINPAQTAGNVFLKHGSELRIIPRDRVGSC

One assay deals with His6-UFM1 (human) (UniProt P61960). Nature of the assay: pull-down; 6XHis-hUFM1 immobilised on Ni beads; UBA5 truncations, GST-UBA5 fragments or mutants added; 15% SDS-PAGE, Coomassie Brilliant Blue; both purified.
The target in assay [1] is T1, ubiquitin-fold modifier 1 (UFM1) (human, UniProt P61960 1-83).
T1 construct: ubiquitin-fold modifier 1 (UFM1), human; the form that ends at Gly 83 (the residues missing in the models are counted up to Gly 83); pET15b, N-terminal His6 followed by a TEV site; purified by the protocol of the UBA5 constructs, which removes the tag; In solution a monomer and a fraction of dimer; also called UFM1 WT; UFM1 alone; source: E. coli, purified (His-Trap, TEV cleavage, second …)
Description: crystal structure; UIS-UFM1 fusion, P4(3)22, two molecules in the asymmetric unit; hanging drop, 20 °C, 0.2 M potassium phosphate dibasic, 20% PEG 3350; both purified.

Take “GST-UBA5 314–404 (from UniProt Q9GZZ9 314-404) (domain or fragment)”: the binding entry with His6-UFM1 (human) is on record as “binds”.

With “GST-UBA5 314–363 (from UniProt Q9GZZ9 314-363) (domain or fragment)”, the binding entry in the assay with His6-UFM1 (human) was “binds”.

B1: UBA5 adenylation domain (AA 57–329) (domain or fragment, UniProt Q9GZZ9 57-329)
chain: MALKRMGIVSDYEKIRTFAVAIVGVGGVGSVTAEMLTRCGIGKLLLFDYDKVELANMNRLFFQPHQAGLSKVQAAEHTLRNINPDVLFEVHNYNITTVENFQHFMDRISNGGLEEGKPVDLVLSCVDNFEARMTINTACNELGQTWMESGVSENAVSGHIQLIIPGESACFACAPPLVVAANIDEKTLKREGVCAASLPTTMGVVAGILVQNVLKFLLNFGTVSFYLGYNAMQDFFPTMSMKPNPQCDDRNCRKQQEEYKKKVAALPKQEVIQ
For the molecule B1, the binding entry with His6-UFM1 (human) is listed as “no binding”.

B2: GST-UBA5 314–346 (domain or fragment, UniProt Q9GZZ9 314-346)
chain: EYKKKVAALPKQEVIQEEEEIIHEDNEWGIELV
As for B2, in the assay with His6-UFM1 (human), the binding result is recorded as “binds”.

B3: UFM1-interacting sequence (UIS) of UBA5, amino acids 334–346 (domain or fragment, UniProt Q9GZZ9 334-346)
chain: IIHEDNEWGIELV
Take B3: the binding entry in assay [1] is recorded as “binds”.

B4: UBA5 346 (amino acids 57–346) (domain or fragment, UniProt Q9GZZ9 57-346)
chain: MALKRMGIVSDYEKIRTFAVAIVGVGGVGSVTAEMLTRCGIGKLLLFDYDKVELANMNRLFFQPHQAGLSKVQAAEHTLRNINPDVLFEVHNYNITTVENFQHFMDRISNGGLEEGKPVDLVLSCVDNFEARMTINTACNELGQTWMESGVSENAVSGHIQLIIPGESACFACAPPLVVAANIDEKTLKREGVCAASLPTTMGVVAGILVQNVLKFLLNFGTVSFYLGYNAMQDFFPTMSMKPNPQCDDRNCRKQQEEYKKKVAALPKQEVIQEEEEIIHEDNEWGIELV
For the molecule B4, in the assay with His6-UFM1 (human), the binding entry is “binds”.
